# Measurements reported in the supplement of paper PMC7666118.
# Sequences of proteins named here, by UniProt entry; tags and fusion partners are left off. A change or cut given only in a name is not applied to a line headed by its entry.
# UniProt P23443: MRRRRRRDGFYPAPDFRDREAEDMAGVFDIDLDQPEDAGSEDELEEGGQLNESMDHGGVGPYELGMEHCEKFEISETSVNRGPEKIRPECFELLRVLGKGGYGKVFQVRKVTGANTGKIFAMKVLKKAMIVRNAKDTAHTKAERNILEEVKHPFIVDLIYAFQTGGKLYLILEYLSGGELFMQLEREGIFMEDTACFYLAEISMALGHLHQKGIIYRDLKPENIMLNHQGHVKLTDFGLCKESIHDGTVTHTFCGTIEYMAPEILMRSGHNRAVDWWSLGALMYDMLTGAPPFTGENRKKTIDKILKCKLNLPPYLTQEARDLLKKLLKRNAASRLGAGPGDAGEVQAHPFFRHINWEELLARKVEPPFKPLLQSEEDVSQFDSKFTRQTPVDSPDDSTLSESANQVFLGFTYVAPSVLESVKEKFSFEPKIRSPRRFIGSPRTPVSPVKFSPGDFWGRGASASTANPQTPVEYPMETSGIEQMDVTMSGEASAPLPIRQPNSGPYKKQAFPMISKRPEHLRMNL
# UniProt Q9NR31: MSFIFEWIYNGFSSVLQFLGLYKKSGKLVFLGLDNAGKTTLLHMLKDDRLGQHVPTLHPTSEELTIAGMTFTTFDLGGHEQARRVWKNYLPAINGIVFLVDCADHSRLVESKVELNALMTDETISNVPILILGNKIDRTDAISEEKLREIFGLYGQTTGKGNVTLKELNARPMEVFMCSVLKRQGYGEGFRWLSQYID
# UniProt Q8IZE3: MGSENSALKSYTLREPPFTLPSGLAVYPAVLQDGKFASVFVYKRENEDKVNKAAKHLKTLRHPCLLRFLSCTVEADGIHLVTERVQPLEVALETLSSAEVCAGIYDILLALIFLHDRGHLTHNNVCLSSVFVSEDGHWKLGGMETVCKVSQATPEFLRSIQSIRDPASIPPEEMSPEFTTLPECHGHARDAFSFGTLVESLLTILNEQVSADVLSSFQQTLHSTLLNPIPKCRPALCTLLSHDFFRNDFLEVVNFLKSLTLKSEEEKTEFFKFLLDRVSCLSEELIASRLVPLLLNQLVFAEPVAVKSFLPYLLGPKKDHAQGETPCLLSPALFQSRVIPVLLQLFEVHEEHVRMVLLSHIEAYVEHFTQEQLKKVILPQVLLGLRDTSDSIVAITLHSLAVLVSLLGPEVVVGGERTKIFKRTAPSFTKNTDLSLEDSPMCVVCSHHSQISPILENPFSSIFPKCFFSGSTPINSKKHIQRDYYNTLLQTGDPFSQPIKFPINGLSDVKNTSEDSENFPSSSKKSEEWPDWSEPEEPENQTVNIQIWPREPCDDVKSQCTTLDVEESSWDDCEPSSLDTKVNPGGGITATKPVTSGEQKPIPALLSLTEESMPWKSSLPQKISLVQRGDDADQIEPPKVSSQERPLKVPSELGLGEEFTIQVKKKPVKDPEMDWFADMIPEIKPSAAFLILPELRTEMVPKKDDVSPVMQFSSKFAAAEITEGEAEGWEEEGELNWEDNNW
# UniProt Q9UPN6: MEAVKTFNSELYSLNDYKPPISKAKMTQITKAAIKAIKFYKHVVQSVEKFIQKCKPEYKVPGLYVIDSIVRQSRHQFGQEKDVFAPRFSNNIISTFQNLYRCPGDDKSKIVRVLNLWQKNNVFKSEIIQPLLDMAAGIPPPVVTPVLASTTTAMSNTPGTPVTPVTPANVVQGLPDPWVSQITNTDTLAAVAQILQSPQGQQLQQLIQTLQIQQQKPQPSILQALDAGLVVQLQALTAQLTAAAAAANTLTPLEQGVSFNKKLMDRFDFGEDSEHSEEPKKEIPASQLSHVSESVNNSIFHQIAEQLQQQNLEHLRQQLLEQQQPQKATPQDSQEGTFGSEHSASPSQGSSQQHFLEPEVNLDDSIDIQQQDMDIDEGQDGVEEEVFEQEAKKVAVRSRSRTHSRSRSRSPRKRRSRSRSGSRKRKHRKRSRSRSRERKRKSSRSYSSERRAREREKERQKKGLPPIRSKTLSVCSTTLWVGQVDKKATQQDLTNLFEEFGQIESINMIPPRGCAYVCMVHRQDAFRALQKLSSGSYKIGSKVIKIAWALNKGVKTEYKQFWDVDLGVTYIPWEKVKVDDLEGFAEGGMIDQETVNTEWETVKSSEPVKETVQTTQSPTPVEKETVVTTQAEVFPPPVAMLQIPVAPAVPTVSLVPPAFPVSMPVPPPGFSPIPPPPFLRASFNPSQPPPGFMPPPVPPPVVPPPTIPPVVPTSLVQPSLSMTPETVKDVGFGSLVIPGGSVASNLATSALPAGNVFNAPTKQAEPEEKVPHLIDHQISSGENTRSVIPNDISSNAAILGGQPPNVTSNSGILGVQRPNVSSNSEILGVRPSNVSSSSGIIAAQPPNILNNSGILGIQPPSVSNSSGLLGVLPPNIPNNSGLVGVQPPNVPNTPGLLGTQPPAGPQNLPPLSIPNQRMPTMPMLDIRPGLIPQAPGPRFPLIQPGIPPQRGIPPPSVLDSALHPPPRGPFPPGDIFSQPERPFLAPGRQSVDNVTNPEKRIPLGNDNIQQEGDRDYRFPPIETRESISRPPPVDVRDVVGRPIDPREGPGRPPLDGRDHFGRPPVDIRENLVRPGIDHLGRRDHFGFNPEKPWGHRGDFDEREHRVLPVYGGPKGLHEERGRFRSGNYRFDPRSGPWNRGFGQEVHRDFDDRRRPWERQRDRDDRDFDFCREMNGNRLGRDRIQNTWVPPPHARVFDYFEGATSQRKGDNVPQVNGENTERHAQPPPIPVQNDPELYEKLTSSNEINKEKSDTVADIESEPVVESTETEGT
# UniProt P21912: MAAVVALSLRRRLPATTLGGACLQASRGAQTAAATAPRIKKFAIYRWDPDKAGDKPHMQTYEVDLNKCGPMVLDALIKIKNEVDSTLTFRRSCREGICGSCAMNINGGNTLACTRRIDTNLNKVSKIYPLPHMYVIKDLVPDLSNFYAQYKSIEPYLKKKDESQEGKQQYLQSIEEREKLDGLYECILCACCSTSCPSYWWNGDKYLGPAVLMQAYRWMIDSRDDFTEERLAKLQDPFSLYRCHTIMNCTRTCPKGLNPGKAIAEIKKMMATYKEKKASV
# UniProt O75818: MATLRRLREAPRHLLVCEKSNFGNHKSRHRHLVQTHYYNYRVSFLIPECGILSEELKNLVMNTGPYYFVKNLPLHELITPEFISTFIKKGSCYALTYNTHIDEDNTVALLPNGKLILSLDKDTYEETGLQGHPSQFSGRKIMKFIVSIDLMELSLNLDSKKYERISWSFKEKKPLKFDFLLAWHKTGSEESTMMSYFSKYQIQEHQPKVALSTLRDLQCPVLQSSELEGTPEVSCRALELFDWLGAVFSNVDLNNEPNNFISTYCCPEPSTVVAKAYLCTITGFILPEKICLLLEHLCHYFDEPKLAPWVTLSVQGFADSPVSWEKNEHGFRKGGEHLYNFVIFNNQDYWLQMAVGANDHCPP
# UniProt Q15637: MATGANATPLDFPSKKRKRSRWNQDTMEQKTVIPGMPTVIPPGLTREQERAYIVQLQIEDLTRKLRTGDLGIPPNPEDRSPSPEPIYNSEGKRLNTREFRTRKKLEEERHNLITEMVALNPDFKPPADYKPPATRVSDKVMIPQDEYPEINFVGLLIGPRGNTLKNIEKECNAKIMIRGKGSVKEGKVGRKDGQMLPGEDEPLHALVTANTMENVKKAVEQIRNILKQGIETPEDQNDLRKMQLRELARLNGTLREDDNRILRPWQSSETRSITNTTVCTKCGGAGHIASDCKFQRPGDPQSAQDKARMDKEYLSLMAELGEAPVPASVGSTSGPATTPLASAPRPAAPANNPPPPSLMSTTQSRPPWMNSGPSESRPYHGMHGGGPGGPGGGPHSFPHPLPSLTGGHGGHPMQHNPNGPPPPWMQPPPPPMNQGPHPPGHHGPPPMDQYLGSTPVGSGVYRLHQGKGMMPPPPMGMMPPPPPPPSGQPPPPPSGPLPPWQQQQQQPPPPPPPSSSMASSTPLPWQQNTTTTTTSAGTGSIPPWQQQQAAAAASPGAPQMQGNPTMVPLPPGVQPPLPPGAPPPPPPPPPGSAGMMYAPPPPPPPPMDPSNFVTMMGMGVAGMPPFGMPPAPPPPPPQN
# UniProt Q16181: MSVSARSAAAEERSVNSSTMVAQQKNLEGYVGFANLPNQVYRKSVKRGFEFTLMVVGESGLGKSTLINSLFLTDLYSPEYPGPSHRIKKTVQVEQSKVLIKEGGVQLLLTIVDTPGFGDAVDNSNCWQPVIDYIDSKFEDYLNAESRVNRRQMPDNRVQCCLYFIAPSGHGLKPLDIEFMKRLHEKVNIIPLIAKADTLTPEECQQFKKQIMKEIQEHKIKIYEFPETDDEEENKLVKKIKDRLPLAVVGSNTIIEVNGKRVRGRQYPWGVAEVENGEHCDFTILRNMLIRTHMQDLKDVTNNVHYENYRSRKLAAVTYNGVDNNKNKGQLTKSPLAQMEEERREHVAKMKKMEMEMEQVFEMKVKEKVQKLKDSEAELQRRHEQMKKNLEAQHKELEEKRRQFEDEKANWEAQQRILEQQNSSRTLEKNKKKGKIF
# UniProt Q8NC51: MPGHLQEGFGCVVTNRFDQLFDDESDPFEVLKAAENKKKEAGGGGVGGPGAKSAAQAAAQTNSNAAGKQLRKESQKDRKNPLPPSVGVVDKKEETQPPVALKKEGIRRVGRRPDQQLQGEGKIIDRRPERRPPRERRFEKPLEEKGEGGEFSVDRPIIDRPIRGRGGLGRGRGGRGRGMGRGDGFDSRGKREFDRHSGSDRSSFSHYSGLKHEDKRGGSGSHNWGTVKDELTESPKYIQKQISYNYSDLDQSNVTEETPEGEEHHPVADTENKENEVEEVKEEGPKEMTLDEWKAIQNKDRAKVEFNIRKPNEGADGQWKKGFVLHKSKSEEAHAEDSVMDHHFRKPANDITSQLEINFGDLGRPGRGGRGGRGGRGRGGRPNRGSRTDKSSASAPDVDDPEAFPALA
# UniProt O60613, whole entry: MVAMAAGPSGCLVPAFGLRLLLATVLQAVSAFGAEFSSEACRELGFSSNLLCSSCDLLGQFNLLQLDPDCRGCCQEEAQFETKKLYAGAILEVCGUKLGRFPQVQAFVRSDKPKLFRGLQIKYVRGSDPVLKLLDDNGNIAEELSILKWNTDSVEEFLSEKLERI
# UniProt O15541: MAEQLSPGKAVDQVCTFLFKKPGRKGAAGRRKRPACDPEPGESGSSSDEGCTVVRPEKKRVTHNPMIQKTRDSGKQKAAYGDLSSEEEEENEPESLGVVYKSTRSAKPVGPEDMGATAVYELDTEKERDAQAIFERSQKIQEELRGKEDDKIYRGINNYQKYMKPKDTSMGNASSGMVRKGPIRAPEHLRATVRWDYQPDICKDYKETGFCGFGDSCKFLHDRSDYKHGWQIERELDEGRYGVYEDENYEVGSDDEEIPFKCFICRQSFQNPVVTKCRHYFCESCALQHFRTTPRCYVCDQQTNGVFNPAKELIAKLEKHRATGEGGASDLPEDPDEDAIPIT
# UniProt Q9UBS8: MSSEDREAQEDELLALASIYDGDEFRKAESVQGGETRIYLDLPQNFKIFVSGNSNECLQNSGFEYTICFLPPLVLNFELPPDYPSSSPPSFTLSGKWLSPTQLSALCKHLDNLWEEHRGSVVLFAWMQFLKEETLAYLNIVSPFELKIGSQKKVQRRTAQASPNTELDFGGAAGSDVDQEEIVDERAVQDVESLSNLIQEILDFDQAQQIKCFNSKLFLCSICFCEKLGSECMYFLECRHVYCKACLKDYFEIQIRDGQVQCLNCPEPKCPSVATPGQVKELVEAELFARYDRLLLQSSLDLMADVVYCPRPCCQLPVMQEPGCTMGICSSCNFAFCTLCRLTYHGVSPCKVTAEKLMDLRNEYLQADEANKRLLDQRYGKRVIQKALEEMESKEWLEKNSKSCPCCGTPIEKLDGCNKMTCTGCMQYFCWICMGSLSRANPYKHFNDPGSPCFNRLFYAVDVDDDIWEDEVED
# UniProt Q9BRK5: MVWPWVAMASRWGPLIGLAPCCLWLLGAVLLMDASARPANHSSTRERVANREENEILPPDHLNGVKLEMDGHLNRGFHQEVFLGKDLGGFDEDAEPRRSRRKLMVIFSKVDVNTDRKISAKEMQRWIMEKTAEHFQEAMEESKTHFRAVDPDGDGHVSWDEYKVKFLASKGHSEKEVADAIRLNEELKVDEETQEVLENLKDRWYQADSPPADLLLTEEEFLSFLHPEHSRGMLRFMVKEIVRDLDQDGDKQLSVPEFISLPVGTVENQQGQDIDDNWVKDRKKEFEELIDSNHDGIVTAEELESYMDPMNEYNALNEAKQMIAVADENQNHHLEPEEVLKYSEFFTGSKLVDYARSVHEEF
# UniProt Q9Y3A5: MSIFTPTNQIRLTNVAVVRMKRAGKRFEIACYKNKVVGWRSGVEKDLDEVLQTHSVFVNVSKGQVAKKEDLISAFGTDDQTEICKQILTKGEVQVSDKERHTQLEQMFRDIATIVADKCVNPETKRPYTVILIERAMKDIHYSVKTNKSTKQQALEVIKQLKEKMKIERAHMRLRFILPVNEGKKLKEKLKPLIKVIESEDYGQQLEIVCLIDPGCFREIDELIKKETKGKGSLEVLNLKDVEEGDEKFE
# The other results are listed elsewhere or left out.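 Rule for the calls: active = dose-dependent thermal stabilisation significant by F-test of dose-response against flat model at 10% FDR; inactive = not significant.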
# Compound: Nc1nc2c(ncn2[C@@H]2O[C@H](COP(=O)(O)OP(=O)(O)OP(=O)(O)O)[C@@H](O)[C@H]2O)c(=O)[nH]1
# Experiment: dose-dependent thermal stabilisation call (2D-TPP, DLPTP, 10% FDR) (binary (1 = stabilised)); higher = stabilised by the compound
# Conditions: system: Jurkat gel-filtered lysate; concentration range 1-500 µM
row,Target,dose-dependent thermal stabilisation call
1,RFK (UniProt Q969G6),active: 1
2,RPL3 (UniProt P39023),inactive: 0
3,SEPTIN9 (UniProt Q9UHD8),inactive: 0
4,RPS6KB1 (UniProt P23443),active: 1
5,RTCB (UniProt Q9Y3I0),active: 1
6,RWDD4 (UniProt Q6NW29),inactive: 0
7,SF3B4 (UniProt Q15427),inactive: 0
8,SAR1A (UniProt Q9NR31),active: 1
9,SCYL3 (UniProt Q8IZE3),inactive: 0
10,RPS27L (UniProt Q71UM5),inactive: 0
11,RTF1 (UniProt Q92541),inactive: 0
12,SCAF8 (UniProt Q9UPN6),inactive: 0
13,SDHB (UniProt P21912),inactive: 0
14,RPP40 (UniProt O75818),inactive: 0
15,SF1 (UniProt Q15637),inactive: 0
16,RNF123 (UniProt Q5XPI4),active: 1
17,SH3GL1 (UniProt Q99961),inactive: 0
18,SEC13 (UniProt P55735),inactive: 0

# Fetched one by one from the list above, 2 records:
row,Target,dose-dependent thermal stabilisation call
10,RPS27L (UniProt Q71UM5),inactive: 0
13,SDHB (UniProt P21912),inactive: 0

# (next part)

row,Target,dose-dependent thermal stabilisation call
1,SAP30BP (UniProt Q9UHR5),inactive: 0
2,RNF4 (UniProt P78317),inactive: 0
3,RPS28 (UniProt P62857),inactive: 0
4,SEPTIN7 (UniProt Q16181),inactive: 0
5,RPS20 (UniProt P60866),inactive: 0
6,RPL17 (UniProt P18621),inactive: 0
7,SERBP1 (UniProt Q8NC51),inactive: 0
8,RTFDC1 (UniProt Q9BY42),inactive: 0
9,SAAL1 (UniProt Q96ER3),inactive: 0
10,SELENOF (UniProt O60613),inactive: 0
11,RPL22 (UniProt P35268),inactive: 0
12,SBNO1 (UniProt A3KN83),inactive: 0
13,RNF113A (UniProt O15541),inactive: 0
14,SET (UniProt Q01105),inactive: 0
15,RNF14 (UniProt Q9UBS8),inactive: 0
16,RPL10A (UniProt P62906),inactive: 0
17,SDF4 (UniProt Q9BRK5),inactive: 0
18,SBDS (UniProt Q9Y3A5),inactive: 0
